Test results as given in article doi:10.1101/2025.03.12.642038.
Residue numbers refer to the chain shown, from its start. For some assays here: A negative result means that nothing was seen under these conditions. For some assays here: At least one verdict was read from the data and is not stated in words by the source. Where a protein sequence is shown, tags need not be part of it. For some assays here: Weaker means in comparison with the reference protein, sequence or condition of that experiment.

Legend:
[1] = biological target: T1, IRF4 DBD wild-type (Homo sapiens) (UniProt Q15306); test: SPR; settings: negligible binding; residues 20-132
T1 sequence (looked up): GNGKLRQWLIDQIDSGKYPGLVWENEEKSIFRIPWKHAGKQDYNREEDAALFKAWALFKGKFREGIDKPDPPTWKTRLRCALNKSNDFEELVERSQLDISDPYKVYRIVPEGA

[2] = biological target: T2, IRF4 DBD C99R (Homo sapiens) (UniProt Q15306); test: SPR; settings: max response ~5 RU; residues 20-132
T2 sequence (looked up): T1 sequence (looked up) with C80R

[3] = biological target: T3, IRF4 DBD R98A/C99A (Homo sapiens) (UniProt Q15306); test: FP; settings: residues 20-132
T3 sequence (looked up): T1 sequence (looked up) with R79A, C80A

[4] = biological target: T4, IRF4 DBD R98A (Homo sapiens) (UniProt Q15306); test: FP; settings: residues 20-132
T4 sequence (looked up): T1 sequence (looked up) with R79A

[5] = biological target: T3, IRF4 DBD R98A/C99A (Homo sapiens); test: SPR two-state kinetic; settings: residues 20-132
[6] = biological target: T4, IRF4 DBD R98A (Homo sapiens); test: SPR two-state kinetic; settings: residues 20-132
[7] = biological target: T3, IRF4 DBD R98A/C99A (Homo sapiens); test: SPR steady state; settings: residues 20-132
[8] = biological target: T4, IRF4 DBD R98A (Homo sapiens); test: SPR steady state; settings: residues 20-132

## AAGCATACAGAGAGACGCATATATGCGTCTCTCTGTATGCTT [scrIRE hairpin (biotin)]
[1]
  binding result: no binding
[2]
  binding result: binds more weakly

## CTTGGTTTCACTTCCTGCGTTTTCGCAGGAAGTGAAACCAAG [IRE hairpin (FAM)]
[3]
  Kd: > 10 µM
[4]
  Kd: > 10 µM

## CTTGGTTTCACTTCCTGCGTTTTCGCAGGAAGTGAAACCAAG [IRE hairpin (biotin)]
[5]
  Kd: > 4.5 µM
[6]
  Kd: > 4.5 µM
[7]
  Kd: > 4.5 µM
[8]
  Kd: > 4.5 µM
